In US20180142018A1 (NOVIMMUNE, published 2018):
Where a chain is given by its changes, count along the chain named. No constants are given. Whether binding was seen depends on the method and setting. Some entries that bind do so weakly or less than the wild type.

B1: F6 antibody (antibody, human IgG1, V domains shown)
VH: EVQLVQSGAEVKKPGESLKISCKGSGYSFTSYWIGWVRQMPGKGLEWMGIIYPGDSDTRYSPSFQGQVTISADKSISTAYLQWSSLKASDTAMYYCARVWYYDFWSGADAFDIWGQGTLVTVSS
VL: EIVMTQSPATLSVSPGERATLSCRASQSVSSNLAWYQQKPGQAPRLLIYGASTRATGIPARFSGSGSGTEFTLTISSLQSEDFAVYYCQQGSLEAPQTFGQGTKVEIK
notes: also called human IgG1 F6 anti-CD19 antibody
B2: 7F11 antibody (antibody, human IgG1, V domains shown)
VH: EVQLVQSGAEVKKPGESLKISCKGSGYSFTSYWIGWVRQMPGKGLEWMGIIYPGDSDTRYSPSFQGQVTISADKSISTAYLQWSSLKASDTAMYYCARGVSGIYNLHGFDIWGQGTLVTVSS
VL: DIQMTQSPSSLSASVGDRVTITCRASQSISSYLNWYQQKPGKAPKLLIYAASSLQSGVPSRFSGSGSGTDFTLTISSLQPEDFATYYCQQGMWDNPFTFGQGTKVEIK
notes: also called human IgG1 7F11 anti-CD19 antibody
B3: 5F5 antibody (antibody, human IgG1, V domains shown)
VH: B2 VH with V100I
VL: B2 VL with G91A, M92S, W93L, N95S, F97L
notes: also called human IgG1 5F5 anti-CD19 antibody
B4: 9G8 antibody (antibody, human IgG1, V domains shown)
VH: B2 VH
VL: B2 VL with M92R, W93F, D94G, N95S
notes: also called human IgG1 9G8 anti-CD19 antibody

Columns and labels:
[1] = molecular target: cynomolgus CD19 (cynomolgus monkey); test: FACS on CHO cells transfected with cynomolgus CD19
[2] = molecular target: cynomolgus CD19 (cynomolgus monkey); test: FACS on cynomolgus PBMC gated on CD20+ B lymphocytes, 30 and 3 µg/mL

Row | Binder | binding [1] | binding [2]
1 | B1 | binds | binds
2 | B2 | binds | binds
3 | B3 | binds | binds
4 | B4 | binds | binds
